The supplement of paper PMC5407854, “Inhibitor of ppGalNAc-T3-mediated O-glycosylation blocks cancer cell invasiveness and lowers FGF23 levels” (eLife, 2017)
The list shows a part of the results. Most entries show no effect beyond the scatter of the controls.

System: ppGalNAc-T2 sensor
Assay: T2 sensor activation Q score (MG/GFP ratio z-score vs DMSO controls) (SD units); higher = more sensor activation (inhibition of ppGalNAc-T2 glycosylation)
Conditions: HEK293 sensor cells; 10 µM; 6 h
Procedure: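 Cells were treated with compound at 10 uM for 6 h, then MG/GFP ratio was read by flow cytometry (10,000 cells per well, duplicate wells). Q = (R - R_neg)/SD_neg relative to DMSO vehicle controls; the signal rises when the glycosyltransferase is inhibited.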

Row | SMILES | T2 sensor activation Q score
1 | Cc1ccc2c(C)nc(N=C(N)N)nc2c1 | -1.23
2 | CCN(C(=O)Cc1ccc(Cl)cc1)c1ccccc1C | -0.11
3 | CCc1ccccc1NC(=O)Nc1cccc(Cl)c1 | -0.13
4 | NNc1ncnc2sc3c(c12)CCC3 | -0.91
5 | CN1c2ccccc2N(C)C1c1ccc2c(c1)OCO2 | -0.095
6 | COc1cccc(Nc2nc(-c3ccc(F)cc3)cs2)c1 | 0.02
7 | Cc1cccc(Cn2ncc(O)c(Cl)c2=O)c1 | 0.775
8 | O=[N+]([O-])c1ccc(S(=O)(=O)Nc2ccc(F)cc2)cc1 | -1.56
9 | Cc1c(C(=O)NC2CC(C)(C)NC(C)(C)C2)cccc1[N+](=O)[O-] | -0.13
10 | c1ccc2c(c1)nc(N1CCCC1)n2CCN1CCCCC1 | 0.475
11 | CC(=O)Nc1ccc(OCc2ccccc2)cc1 | 0.32
12 | O=C(O)CC1Sc2ccccc2NC1=O (stereo not given) | -0.425
13 | COc1cc(OC)c(OC)cc1CN1CCN(c2cccc(Cl)c2)CC1 | -0.065
14 | COc1cc(CN2CCN(c3ccccc3)CC2)c([N+](=O)[O-])cc1OC | -0.07
15 | CC(=O)Nc1ccc(S(=O)(=O)N2CCCCCC2)cc1 | 0.295
16 | c1ccc(OCCN2CCOCC2)cc1 | -0.535
17 | Fc1ccccc1CN1CCN(c2ccccn2)CC1 | -0.78
18 | CCOc1cc(CN(C)CCN(C)C)ccc1O | 0.315
19 | Cc1onc(-c2ccccc2)c1C(=O)NN | -1.01
20 | O=[N+]([O-])c1ccccc1CN1CCN(C/C=C/c2ccccc2)CC1 | 1.18

Two of these compounds in a different format.
Row,SMILES,T2 sensor activation Q score
10,c1ccc2c(c1)nc(N1CCCC1)n2CCN1CCCCC1,0.475
11,CC(=O)Nc1ccc(OCc2ccccc2)cc1,0.32

Following part

Row | SMILES | T2 sensor activation Q score
21 | Cc1cccc(CN(C)C2CCN(C)CC2)c1 | 0.55
22 | Cc1ccc(O)c(C(=O)CC(=O)c2cccc(F)c2)c1 | 0.15
23 | O=C(O)c1ccc(C(=O)O)c(-c2ccccc2)c1 | -0.49
24 | CCNc1nc(NC(C)C)nc(N2CCCC2)n1 | 0.39
25 | CCOc1ccc(N=C(c2cccc([N+](=O)[O-])c2)N2CCOCC2)cc1 | -0.18
26 | Cc1ccc2nc(-c3ccc(Cl)cc3)cn2c1 | -1.3
27 | COc1ccc(CNN)c(OC)c1 | -0.19
28 | COc1cc(C(=O)N2CCN(C(=O)c3ccco3)CC2)cc(OC)c1OC | 0.475
29 | O=C(C1CCCCC1)N1CC(=O)N(CCc2ccccc2)C(=O)C1 | 0.275
30 | c1ccc2c3c([nH]c2c1)CN(Cc1ccc2c(c1)OCO2)CC3 | 0.505
31 | CCOc1ccc(NC(=O)c2cccs2)cc1 | 0.53
32 | CC(C)Cc1ccc(C(C)C(=O)NN)cc1 (stereo not given) | -0.425
33 | COc1ccc(S(=O)(=O)Nc2ccc3oc(C)c(C(C)=O)c3c2)cc1 | -0.16
34 | O=C1C2C3C=CC(C3)C2C(=O)N1c1nccs1 (stereo not given) | -0.245
35 | COc1ccc2c(c1)CCC(C1(O)C(=O)Nc3ccccc31)C2=O (stereo not given) | -0.075
36 | COc1ccc(CN2CCN(c3cc(C)ccc3C)CC2)cc1OC | 0.24
37 | COc1cc2nc(C)sc2cc1OC | -0.345
38 | O=C(NCc1cccnc1)Nc1cccc(Cl)c1 | 0.1
39 | COc1ccc(C2(C(N)=O)CCCC2)cc1OC | 0.635
40 | c1ccc2c(c1)nnn1c3ccccc3nc21 | -0.845
